Data from patent US6684405B2, “Surgical and examination gloves” (priority 2001, dated 2004).

Test: Donnability of latex examination gloves dusted with test material, compared to talc
Conditions: latex examination glove, 6 mg. of test material dusted into the glove; rating 0 to 10 with 10 being the best

| Compound | Rating (donnability) |
| --- | --- |
| O=C(O)c1cc(=O)c2c(OCC(O)COc3cccc4oc(C(=O)O)cc(=O)c34)cccc2o1 [Sodium Cromolyn] | 7 |
| Alpha 1-antitrypsin | 7 |
